Positions count from the first letter of the chain named. The list shows a part of the results. The calls were merged from several studies; some rest on single wells.
How the values were obtained:
Settings in all cases: stereoisomer not certain
O11H1 [1] = tested on: T1, O11H1
T1 sequence (whole entry): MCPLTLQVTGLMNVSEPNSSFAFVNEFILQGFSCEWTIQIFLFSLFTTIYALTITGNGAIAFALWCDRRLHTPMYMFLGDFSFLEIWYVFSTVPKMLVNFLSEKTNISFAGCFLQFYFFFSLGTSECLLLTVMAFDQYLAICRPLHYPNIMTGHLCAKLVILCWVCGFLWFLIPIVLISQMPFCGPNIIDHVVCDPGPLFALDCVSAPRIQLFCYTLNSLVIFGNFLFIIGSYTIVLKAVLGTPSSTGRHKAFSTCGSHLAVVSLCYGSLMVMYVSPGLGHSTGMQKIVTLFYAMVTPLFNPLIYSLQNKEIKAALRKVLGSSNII
In short: (§1)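 Assay methods differ from source to source, frequently being transient luciferase assays in mammalian cell lines. For each receptor–molecule pair, the label responsive (active) applies when the original authors judged the measured signal statistically different from baseline, and non-responsive (inactive) applies otherwise.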

Chains of the proteins cited; added tags and fusions are not shown. Chains listed by the source or under a name are the forms on record and can include a tag or linker.
O11H2, as listed by the source: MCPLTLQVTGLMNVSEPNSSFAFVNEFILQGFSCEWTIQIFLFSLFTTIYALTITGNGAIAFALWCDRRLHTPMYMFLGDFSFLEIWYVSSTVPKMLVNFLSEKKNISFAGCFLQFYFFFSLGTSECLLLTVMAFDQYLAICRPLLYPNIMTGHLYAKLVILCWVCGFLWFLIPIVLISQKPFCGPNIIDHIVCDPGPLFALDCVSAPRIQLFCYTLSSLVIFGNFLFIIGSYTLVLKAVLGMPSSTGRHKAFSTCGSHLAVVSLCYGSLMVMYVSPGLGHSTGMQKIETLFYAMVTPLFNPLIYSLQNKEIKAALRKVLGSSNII

O11H2 = tested on: T2, O11H2
T2 sequence (whole entry): T1 sequence (whole entry) with F90S, T105K, H146L, C156Y, M181K, V192I, N218S, I235L, T243M, V289E
In short: as §1

O11H4 = tested on: T3, O11H4
T3 sequence (whole entry): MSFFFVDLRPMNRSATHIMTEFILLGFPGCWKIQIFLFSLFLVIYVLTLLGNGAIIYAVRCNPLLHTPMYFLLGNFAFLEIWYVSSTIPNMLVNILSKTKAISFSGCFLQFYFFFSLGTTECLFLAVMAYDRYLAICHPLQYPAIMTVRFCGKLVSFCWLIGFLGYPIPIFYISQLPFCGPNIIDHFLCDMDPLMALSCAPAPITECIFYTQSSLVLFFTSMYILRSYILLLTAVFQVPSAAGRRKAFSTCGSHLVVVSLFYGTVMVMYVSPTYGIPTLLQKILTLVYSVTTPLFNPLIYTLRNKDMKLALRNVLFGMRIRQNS
In short: as §1

O11L1 = tested on: T4, O11L1
T4 sequence (whole entry): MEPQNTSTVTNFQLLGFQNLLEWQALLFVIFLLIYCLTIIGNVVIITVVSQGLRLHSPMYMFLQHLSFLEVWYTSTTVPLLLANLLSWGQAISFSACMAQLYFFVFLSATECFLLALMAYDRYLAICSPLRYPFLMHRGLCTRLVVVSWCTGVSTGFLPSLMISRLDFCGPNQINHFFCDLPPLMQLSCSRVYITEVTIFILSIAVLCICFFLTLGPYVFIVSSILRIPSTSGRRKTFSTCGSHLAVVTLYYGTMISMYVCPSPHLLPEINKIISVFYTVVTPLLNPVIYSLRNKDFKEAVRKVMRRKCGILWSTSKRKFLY
In short: as §1

O12D2 = tested on: T5, O12D2
T5 sequence (whole entry): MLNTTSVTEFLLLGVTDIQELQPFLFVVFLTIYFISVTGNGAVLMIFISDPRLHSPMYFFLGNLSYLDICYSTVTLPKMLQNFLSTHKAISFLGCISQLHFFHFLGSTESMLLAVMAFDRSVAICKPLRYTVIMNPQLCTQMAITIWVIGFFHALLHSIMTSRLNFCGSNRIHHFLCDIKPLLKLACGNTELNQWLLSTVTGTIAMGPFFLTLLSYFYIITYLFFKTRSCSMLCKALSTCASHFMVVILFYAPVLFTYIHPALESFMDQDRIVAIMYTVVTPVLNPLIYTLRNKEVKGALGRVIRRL
In short: as §1

O13C3 = tested on: T6, O13C3
T6 sequence (whole entry): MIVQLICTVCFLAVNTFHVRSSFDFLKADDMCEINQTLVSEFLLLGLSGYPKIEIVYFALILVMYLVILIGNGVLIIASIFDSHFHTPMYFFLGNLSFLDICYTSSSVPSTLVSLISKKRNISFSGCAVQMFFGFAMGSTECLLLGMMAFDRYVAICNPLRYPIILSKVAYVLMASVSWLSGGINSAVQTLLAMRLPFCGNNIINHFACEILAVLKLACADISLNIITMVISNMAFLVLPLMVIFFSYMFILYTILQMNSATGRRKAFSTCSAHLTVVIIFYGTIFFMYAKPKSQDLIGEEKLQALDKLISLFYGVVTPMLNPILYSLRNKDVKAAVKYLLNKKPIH
In short: as §1

O13C5 = tested on: T7, O13C5
T7 sequence (whole entry): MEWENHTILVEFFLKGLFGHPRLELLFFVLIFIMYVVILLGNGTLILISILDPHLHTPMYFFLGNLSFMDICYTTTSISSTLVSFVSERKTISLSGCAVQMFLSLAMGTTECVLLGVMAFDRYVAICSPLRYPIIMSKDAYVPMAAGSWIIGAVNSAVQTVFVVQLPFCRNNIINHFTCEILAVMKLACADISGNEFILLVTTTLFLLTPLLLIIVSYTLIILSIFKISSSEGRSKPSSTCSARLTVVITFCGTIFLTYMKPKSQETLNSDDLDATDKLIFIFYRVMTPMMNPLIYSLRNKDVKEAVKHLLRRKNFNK
In short: as §1

O13C7 = tested on: T8, O13C7
T8 sequence (whole entry): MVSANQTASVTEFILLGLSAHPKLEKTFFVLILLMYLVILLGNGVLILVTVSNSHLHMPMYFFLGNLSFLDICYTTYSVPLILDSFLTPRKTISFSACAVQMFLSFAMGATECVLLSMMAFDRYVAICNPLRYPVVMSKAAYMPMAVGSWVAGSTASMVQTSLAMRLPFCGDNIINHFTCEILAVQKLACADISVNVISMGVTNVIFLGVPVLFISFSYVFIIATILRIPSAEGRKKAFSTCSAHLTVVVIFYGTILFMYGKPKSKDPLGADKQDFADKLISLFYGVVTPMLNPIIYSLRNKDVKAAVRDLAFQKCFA
In short: as §1

O13C9 = tested on: T9, O13C9
T9 sequence (whole entry): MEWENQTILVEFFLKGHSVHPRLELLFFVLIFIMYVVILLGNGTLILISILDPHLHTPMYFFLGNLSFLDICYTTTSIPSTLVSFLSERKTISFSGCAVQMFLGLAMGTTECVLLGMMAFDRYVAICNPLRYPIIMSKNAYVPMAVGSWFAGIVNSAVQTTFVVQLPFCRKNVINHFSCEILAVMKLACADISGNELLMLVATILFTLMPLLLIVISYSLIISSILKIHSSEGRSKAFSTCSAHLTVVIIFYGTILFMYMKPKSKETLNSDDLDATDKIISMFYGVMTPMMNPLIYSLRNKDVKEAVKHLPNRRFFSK
In short: as §1

O13D1 [2] = tested on: T10, O13D1
T10 sequence (whole entry): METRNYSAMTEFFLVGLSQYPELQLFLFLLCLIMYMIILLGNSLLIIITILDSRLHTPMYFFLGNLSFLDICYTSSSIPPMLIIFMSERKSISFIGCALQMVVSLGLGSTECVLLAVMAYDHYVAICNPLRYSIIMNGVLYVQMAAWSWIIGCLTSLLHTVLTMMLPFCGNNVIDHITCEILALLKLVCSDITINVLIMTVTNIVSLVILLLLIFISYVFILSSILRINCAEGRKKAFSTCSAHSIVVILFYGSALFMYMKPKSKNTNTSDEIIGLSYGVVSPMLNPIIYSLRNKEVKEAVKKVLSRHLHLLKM
In short: as §1

O13D1 [3] = tested on: T11, O13D1; remark: listed apart in the source
T11 sequence (whole entry): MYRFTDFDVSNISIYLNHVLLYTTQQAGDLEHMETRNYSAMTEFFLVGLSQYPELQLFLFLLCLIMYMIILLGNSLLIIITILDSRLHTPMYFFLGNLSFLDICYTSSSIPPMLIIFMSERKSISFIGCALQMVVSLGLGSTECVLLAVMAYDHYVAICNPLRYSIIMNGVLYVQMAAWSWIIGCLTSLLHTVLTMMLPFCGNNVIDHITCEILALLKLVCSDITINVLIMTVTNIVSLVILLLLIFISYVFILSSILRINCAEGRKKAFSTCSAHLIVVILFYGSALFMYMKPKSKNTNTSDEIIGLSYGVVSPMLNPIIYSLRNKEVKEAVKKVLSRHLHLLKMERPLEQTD
In short: as §1

O13F1 = tested on: T12, O13F1
T12 sequence (whole entry): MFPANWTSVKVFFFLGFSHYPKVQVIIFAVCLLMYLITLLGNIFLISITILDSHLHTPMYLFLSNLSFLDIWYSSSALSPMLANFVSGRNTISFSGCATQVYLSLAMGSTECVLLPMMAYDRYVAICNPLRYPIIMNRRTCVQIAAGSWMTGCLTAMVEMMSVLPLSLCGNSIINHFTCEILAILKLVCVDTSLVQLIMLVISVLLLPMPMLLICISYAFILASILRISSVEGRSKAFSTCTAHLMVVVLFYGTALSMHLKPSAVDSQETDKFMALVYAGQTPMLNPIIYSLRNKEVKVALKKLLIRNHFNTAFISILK
In short: as §1

O13G1 = tested on: T13, O13G1
T13 sequence (whole entry): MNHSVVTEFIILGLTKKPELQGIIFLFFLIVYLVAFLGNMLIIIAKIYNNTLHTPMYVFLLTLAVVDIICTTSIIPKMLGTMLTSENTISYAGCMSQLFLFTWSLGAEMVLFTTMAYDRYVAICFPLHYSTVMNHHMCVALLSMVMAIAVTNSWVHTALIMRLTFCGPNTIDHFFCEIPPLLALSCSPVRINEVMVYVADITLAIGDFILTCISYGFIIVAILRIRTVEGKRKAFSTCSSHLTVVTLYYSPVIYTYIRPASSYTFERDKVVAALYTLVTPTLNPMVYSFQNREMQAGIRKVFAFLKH
In short: as §1

O13J1 = tested on: T14, O13J1
T14 sequence (whole entry): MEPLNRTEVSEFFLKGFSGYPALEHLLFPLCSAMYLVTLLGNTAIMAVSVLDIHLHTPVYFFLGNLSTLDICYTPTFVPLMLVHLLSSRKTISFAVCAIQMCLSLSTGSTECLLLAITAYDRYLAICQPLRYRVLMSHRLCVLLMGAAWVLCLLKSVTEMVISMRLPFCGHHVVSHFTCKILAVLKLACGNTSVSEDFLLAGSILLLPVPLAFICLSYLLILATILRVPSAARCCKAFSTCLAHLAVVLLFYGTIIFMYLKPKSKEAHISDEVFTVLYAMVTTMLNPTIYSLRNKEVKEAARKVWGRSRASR
In short: as §1

O11H1 [4] = tested on: T15, O11H1; remark: listed apart in the source
T15 sequence (whole entry): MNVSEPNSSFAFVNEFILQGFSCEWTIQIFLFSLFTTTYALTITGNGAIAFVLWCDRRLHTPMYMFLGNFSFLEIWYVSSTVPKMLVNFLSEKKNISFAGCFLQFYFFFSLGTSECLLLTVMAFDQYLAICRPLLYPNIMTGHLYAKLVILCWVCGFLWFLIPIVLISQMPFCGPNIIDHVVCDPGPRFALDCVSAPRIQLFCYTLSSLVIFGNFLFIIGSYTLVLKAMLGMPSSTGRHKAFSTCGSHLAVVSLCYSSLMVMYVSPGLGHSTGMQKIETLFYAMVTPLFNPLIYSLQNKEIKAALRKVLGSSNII
In short: as §1

SMILES	odorant receptor agonist call (O11H1 [1])	odorant receptor agonist call (O11H2)	odorant receptor agonist call (O11H4)	odorant receptor agonist call (O11L1)	odorant receptor agonist call (O12D2)	odorant receptor agonist call (O13C3)	odorant receptor agonist call (O13C5)	odorant receptor agonist call (O13C7)	odorant receptor agonist call (O13C9)	odorant receptor agonist call (O13D1 [2])	odorant receptor agonist call (O13D1 [3])	odorant receptor agonist call (O13F1)	odorant receptor agonist call (O13G1)	odorant receptor agonist call (O13J1)	odorant receptor agonist call (O11H1 [4])
CC(=O)c1ccccc1	inactive	inactive	inactive	inactive	inactive	active	inactive	inactive	inactive	inactive	inactive	inactive	inactive	inactive	–
CCCCCC(C)=O	inactive	inactive	inactive	inactive	inactive	inactive	inactive	inactive	inactive	inactive	inactive	inactive	inactive	inactive	–
C=CCc1ccc(OC(C)=O)c(OC)c1	inactive	inactive	inactive	inactive	inactive	active	inactive	inactive	inactive	inactive	inactive	inactive	inactive	active	active
COC(=O)c1ccccc1	inactive	inactive	inactive	inactive	inactive	inactive	inactive	inactive	inactive	inactive	inactive	inactive	inactive	inactive	–
CC(=O)OC(C)(C)C1CC=C(C)CC1 (configuration not stated)	inactive	inactive	inactive	inactive	inactive	inactive	inactive	inactive	inactive	inactive	inactive	inactive	inactive	inactive	active
CC(C)C=O	inactive	inactive	inactive	inactive	inactive	inactive	inactive	inactive	inactive	inactive	inactive	inactive	inactive	inactive	inactive
